PMC6896172, “Successful Targeting of the Warburg Effect in Prostate Cancer by Glucose-Conjugated 1,4-Naphthoquinones” (Cancers, 2019)

Test system: 22Rv1 cells
Experiment: Global proteome analysis (LC-MS/MS, DIA) of differentially expressed proteins
Type: cell-based, human
Settings: 5 µM, 48 h
Protocol: 22Rv1 cells were seeded in T75 culture bottles (4 × 10^6 cells/bottle in 20 mL/bottle), treated for 48 h with the 5 µM of compound 11 or vehicle (DMSO), harvested by scratching, washed twice with ice-cold PBS and flash-frozen. Cells were lysed and sonicated. The protein extracts were then heat-denaturated, reduced, alkylated and digested by trypsin. Peptides were chromatographically separated using full recovery autosampler vials and a nano-UPLC system (Acquity, Waters Corporation, Milford, MS, USA), coupled via electrospray ionization (ESI) to a tandem mass spectrometer equipped with a quadrupole and an orbitrap (QExactive, Thermo Fisher Scientific, Bremen, Germany), using MS/MS mode in data dependent acquisition (DDA) and data independent acquisition (DIA). The peptides, analyzed with DDA-LC-MS/MS, were identified with the search engine Sequest, integrated in the Proteome Discoverer software version 2.0 (Thermo Fischer Scientific) using the human Uniprot protein database (EMBL; Hinxton Cambridge, UK, release December 2018). […] For the details of sample preparation and proceeding, data acquisition and analysis see the Supplementary information. […]
serum (FBS, Invitrogen) and 1% penicillin/streptomycin (Invitrogen)). […]
0.1% FA in Acetonitrile (ACN), both at pH = 3). […] The eluting peptides were analyzed on a quadrupole-orbitrap mass spectrometer (QExactive, Thermo Fisher Scientific, Bremen, Germany) in data dependent acquisition (DDA) and data independent acquisition (DIA) for quantification.
In DDA mode, one replicate of each cell line was randomly chosen and 1 µg per sample was used per LC-MS/MS run to build a reference spectral library used for data extraction of samples acquired in DIA mode. For DDA, the 12 most intense ions per precursor scan (1 × 10 6 ions, 70,000 Resolution, 120 ms fill time) were analyzed by MS/MS (HCD at 25 normalized collision energy, 1 × 105 ions, 17,500 Resolution, 50 ms fill time) in a range of 400–1300 m/z. […] For DIA, 1 µg of each sample was analyzed using a 30 sequential 20 Da fixed window method covering the mass range from 400 –1000 m/z. […]

CC1(C)OC2OC(C(O)COC3=CC(=O)c4cccc(O)c4C3=O)C(O)C2O1 (stereo not drawn) [Compound 11]
number of proteins with decreased expressional levels (downregulation): 182
number of proteins with increased expressional levels (upregulation): 92
number of significantly regulated proteins (1.5 ≤ fold change ≤ 1/1.5, p ≤ 0.05) (2163 proteins quantified): 274
